Assay results

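A cell-based FRET test of anthrax lethal toxin entry, tracked through the 460 nm emission signal; the cell line is not named here.
Each compound was tested as a concentration series from about 0.0005 to 40 µM.
The number is the fitted AC50 of the 460 nm signal alone; lower values mean a more potent effect. A falling signal goes with compounds filed as inhibitors or cytotoxic, a rising one with activators or fluorescent compounds (inferred from the filed classes).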

Values are in nM.
Common to all entries: measured here: 460 nm channel.
Part of the compounds only, not a random draw; the main read-out is not listed here.
A potency from a partial, single-point or poor curve is only a rough figure.
The first word of each remark tells which way the curve ran; it can be opposite to the aim of the assay.

O=C(Nc1ncc2c(n1)CC(c1ccco1)CC2=O)c1ccc(Cl)cc1 (stereo not shown) gave AC50 316.2 nM (falling, full curve).
COc1ccc(C(=O)Oc2ccc3c(c2)OCO3)cc1OC gave AC50 12589 nM (falling, partial curve).
COc1ccc(-c2noc(CCC(=O)Nc3ccc4c(c3)OCCO4)n2)cc1 gave AC50 5012 nM (rising, single point).
Cc1ccc(N2CC(C(=O)Nc3ccc4c(c3)OCCO4)CC2=O)cc1 (stereo not shown) gave AC50 1995 nM (falling, single point).
COc1ccc(CCn2c(C)cc(C(=O)CSc3nnc(N)s3)c2C)cc1 gave AC50 10000 nM (falling, partial curve).
c1coc(Cn2c(SCc3nc4ccccc4[nH]3)nnc2-c2cnccn2)c1 gave AC50 3981 nM (falling, partial curve).
Cc1c(C(=O)OC2CCC(C)CC2)[nH]c2c1C(=O)CCC2 (stereo not shown) gave AC50 10000 nM (falling, partial curve).
COC(=O)/C=C1\NCCSC1=O gave AC50 39.81 nM (falling, full curve).
CCOC(=O)CCN1C(=O)[C@@H]2[C@H]3C(=CC[C@H]2C1=O)C(=O)[C@H]1O[C@H]1[C@H]3O gave AC50 1259 nM (rising, partial curve).
CCCN1Cc2cccc(C(=O)Nc3ccc(CN4CCCC4)cc3)c2C1=O gave AC50 15848 nM (falling, partial curve).
CC1CCCCC1NC(=O)C1CCN(C(=O)NC2CCCCC2)CC1 (stereo not shown) gave AC50 12589 nM (rising, partial curve).
CCOC(=O)c1ccc(-n2ncc(C(=O)OCC)c2N)cc1 gave AC50 12589 nM (rising, partial curve).
COC(=O)c1ccc2nc(NC(=O)CN3C(=O)CCC3=O)sc2c1 gave AC50 50.12 nM (falling, full curve).
COC(=O)CCC(=O)Nc1ccc(C)cc1OC(=O)CCC(=O)OC gave AC50 12589 nM (rising, single point).
CCOC(=O)C1SC2(C(F)F)CC1(O)c1c(c(OC)c3occc3c1OC)O2 (stereo not shown) gave AC50 31622 nM (falling, single point).
CN1CCN(C(=O)c2ccccc2NC(=O)CCN2C(=O)c3ccccc3C2=O)CC1 gave AC50 794.3 nM (falling, full curve, poor fit).
O=C(O)c1cccnc1Nc1cccc(C(F)(F)F)c1 gave AC50 25118 nM (rising, partial curve).
CCNc1ncc2nc(-c3cccs3)c(=O)n(CCc3ccccc3)c2n1 gave AC50 3162 nM (rising, partial curve).
COc1ccc2nc(NC(=O)C3CCCN(S(=O)(=O)c4c(C)noc4C)C3)sc2c1 (stereo not shown) gave AC50 19952 nM (falling, partial curve).
COCCn1c(=O)c(-c2ccc(F)c(F)c2)nc2cncnc21 gave AC50 10000 nM (rising, partial curve).
Cn1cc(-c2nc3cnc(Oc4ccccc4)nc3n(C3CC3)c2=O)c2ccccc21 gave AC50 3162 nM (rising, full curve).
CCOC(=O)[C@@]12C[C@@H]1/C(=N/O)c1ccccc1O2 gave AC50 12589 nM (falling, single point).
CCN1C[C@@]2(COC(=O)c3ccccc3N3C(=O)C[C@H](C)C3=O)CC[C@H](OC)[C@@]34[C@@H]5CC6[C@@H](OC)C[C@@](O)([C@H]5[C@H]6OC)C(O)([C@@H]13)[C@@H](OC)[C@H]24 gave AC50 12589 nM (falling, single point).
CCNc1ncc2nc(-c3ccccc3)c(=O)n(C)c2n1 gave AC50 3162 nM (rising, full curve).
CO[C@]1(NC(=O)CSCC#N)C(=O)N2C(C(=O)O)=C(CSc3nnnn3C)CS[C@H]21 gave AC50 3981 nM (falling, full curve, poor fit).
O=C(Cn1cnnn1)Nc1ccccc1Cc1ccccc1 gave AC50 5012 nM (rising, single point).
Cc1ccc(C)c2[nH]c(=O)c(CN(CCN3CCCC3)C(=O)Nc3cccc(Cl)c3)cc12 gave AC50 10000 nM (falling, partial curve).
CCC(=O)OC1(C#CCOc2ccc(OC)cc2)CCN(C)CC1 gave AC50 1995 nM (falling, single point).
N#Cc1ccc(CN2CCCC3(CCN(C(=O)c4cc(C(F)(F)F)cc(C(F)(F)F)c4)CC3)C2)cc1 gave AC50 10000 nM (rising, partial curve).
CC(C)c1nccn1Cc1ccc(Cl)cc1Cl gave AC50 501.2 nM (falling, single point).
O=C(c1ccncc1)N1CCC2(CCCN(Cc3nccs3)C2)CC1 gave AC50 15848 nM (rising, partial curve).
CSc1ccc(-c2c(C#N)c(N)nc3c2c(C)nn3-c2ccccc2)cc1 gave AC50 1000 nM (falling, full curve).
Cn1cc(-c2nc3cnc(N4CCNCC4)nc3n(CCC#N)c2=O)c2ccccc21 gave AC50 12589 nM (rising, partial curve).
O=C(CCCN1C(=O)CCC1=O)Nc1ccc2c(c1)OCO2 gave AC50 31.62 nM (falling, full curve, poor fit).
CN(CCc1ccc(Cl)c(Cl)c1)CCN1CCCCCC1 gave AC50 25118 nM (falling, partial curve, poor fit).
Cn1c(SCc2ccccn2)nnc1-c1cnccn1 gave AC50 5012 nM (rising, single point).

Repeated from the top, 3 entries:

O=C(Nc1ncc2c(n1)CC(c1ccco1)CC2=O)c1ccc(Cl)cc1 (stereo not shown) read AC50 316.2 nM (falling, full curve).
COc1ccc(C(=O)Oc2ccc3c(c2)OCO3)cc1OC read AC50 12589 nM (falling, partial curve).
COc1ccc(-c2noc(CCC(=O)Nc3ccc4c(c3)OCCO4)n2)cc1 read AC50 5012 nM (rising, single point).

Source: PubChem BioAssay AID912 (NCATS, 2007).